Measurements reported in PubChem BioAssay AID504744 (Drosophila RNAi Screening Center, 2011).
The deposit covers about 23,000 reagents; shown is a random part of those that have a named target and a result. Over the whole deposit, 98 (0.43%) got an active call. 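Only hit calls are given; the phospho-dAkt signals, z-scores and hit direction were not deposited.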 Reagents against one gene are numbered here. A plus sign joins genes that one reagent is predicted to hit.

Assay: 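Find genes whose loss alters insulin-driven dAkt phosphorylation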 (primary screen)
System: Drosophila Kc167 cells
Reagent: long dsRNA against Drosophila genes, 250 ng dsRNA per well of a 384-well plate
Duration: 3 days of knock-down, then overnight serum-free starvation before stimulation
Treatment: bovine insulin at 387 nM for 10 minutes after 12 h without serum
Measured: 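Per-well phospho-dAkt level from an in-cell fluorescent antibody stain, divided by a DNA-dye signal; log2 residuals turned into z-scores that take cell number into account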
Hit rule: 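Under insulin, a gene counts as a hit if the average z-score of two replicates lies above 2.5 or below -2.5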

Depletion of RpL5 came out at: inactive.
Depletion of Eig71Eb gave: inactive.
Knock-down of lectin-46Cb came out at: inactive.
NSD showed inactive.
rho scored inactive.
After knock-down of Tengl4 the results were inactive.
With knock-down of CG13578 the results were inactive.
Depletion of His-Psi:CR31616 + His-Psi:CR31615 resulted in: inactive.
Against slo, the entry reads inactive.
Knock-down of CG15543 gave: inactive.
For CG13073, the values are inactive.
Depletion of CG9864 came out at: inactive.
Silencing of eEF1beta gave: inactive.
CG2991 showed inactive.
Depletion of CG5539 gave: inactive.
Depletion of CG17118 came out at: inactive.
Depletion of CG34012 came out at: inactive.
Ugt35C1 showed inactive.
Knock-down of hid resulted in: inactive.
After knock-down of Ibf2, the screen gave inactive.
After knock-down of CG8097 the results were inactive.
Depletion of side #1 came out at: inactive.
side #2 scored inactive.
Against side #3, the entry reads inactive.
Knock-down of side #4 gave: inactive.
side #5 scored inactive.
After knock-down of scrt the results were inactive.
Silencing of DIP-epsilon #1 came out at: inactive.
DIP-epsilon #2 scored inactive.
Silencing of CG31463 came out at: inactive.
Depletion of CG13003 came out at: inactive.
Knock-down of CG14050 gave: inactive.
With knock-down of CR42548, the screen gave inactive.
Vav showed inactive.
CG11726 gave inactive.
kug gave inactive.
CG8128 showed inactive.
With knock-down of CG3342 the results were inactive.
Silencing of CG8924 resulted in: inactive.
Dhdds scored inactive.
For CycH #1, the entry reads inactive.
After knock-down of CycH #2, the record shows inactive.
After knock-down of Bem46, the screen gave inactive.
For CG6553, the values are inactive.
With knock-down of da, the record shows inactive.
After knock-down of CG2444, the record shows inactive.
Polr1D + DCTN6-p27 showed inactive.
For CG4666, the values are inactive.
With knock-down of CR10032, the screen gave inactive.
After knock-down of EloC, the screen gave inactive.
After knock-down of Xbp1 #1, the record shows inactive.
Xbp1 #2 gave inactive.
ClpP scored inactive.
After knock-down of Cyp9h1, the screen gave inactive.
With knock-down of thr, the screen gave inactive.
Silencing of Pp1-13C resulted in: inactive.
Rai1 gave inactive.

Targets above whose gene name starts with R or r (3):
RpL5 → call: inactive
rho → call: inactive
Rai1 → call: inactive
